PubChem BioAssay AID686943 – Drosophila RNAi Screening Center – 2013

Purpose: 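Search across the genome for regulators of signalling from receptor tyrosine kinase to ERK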 (primary screen)
Cells: Drosophila S2R+ haemocyte-like cells expressing YFP-tagged ERK (Rolled)
Knock-down reagent: long dsRNA against Drosophila genes
Conditions: insulin stimulation versus unstimulated cells; dose and duration not given
Read-out: 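Antibody staining for doubly phosphorylated ERK divided by ERK-YFP signal, as plate z-scores, in insulin-treated and untreated cells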
Reading the numbers: replicate 1, z-score of dpERK with insulin and replicate 2, z-score of dpERK with insulin: higher = more active ERK per ERK-YFP after insulin
The deposit covers about 23,000 reagents; shown is an unselected part of those that have a named target and a result. 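Extra replicates exist only for a retested subset of genes; insulin dose and duration not given; both raised and lowered dpERK matter.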 A plus sign joins genes that one reagent is predicted to hit. Not all columns of the deposit are shown. The record does not give: the amount of reagent, the time to read-out.

replicate 1, z-score of dpERK with insulin | replicate 2, z-score of dpERK with insulin | Target gene | amplicon
1.01 | -0.06 | NimC3 | DRSC03556
0.9 | 0.42 | NimC3 | DRSC22528
-0.41 | -0.22 | CG5024 | DRSC15698
-0.1 | -1.4 | Cph | DRSC17507
0.73 | 1.36 | Cph | DRSC18434
1.03 | 1.05 | VhaAC45 | DRSC07058
-0.69 | 0 | CG42264 | DRSC18074
-0.23 | 0.01 | CG42264 | DRSC18075
0.9 | 1.4 | Cyp6a23 | DRSC07383
1.03 | 0.27 | Cpr12A | DRSC19722
0.04 | 0.38 | Sytalpha | DRSC02869
-0.61 | -0.23 | Ice2 | DRSC14268
-0.78 | -1.44 | CaMKI | DRSC17162
-0.1 | 0.18 | Obp47b + CG7741 | DRSC06330
-0.45 | -0.07 | Acp98AB | DRSC21837
-0.08 | -0.6 | CG42538 | DRSC09412
0.29 | -0.27 | CG30016 | DRSC05242
0.51 | 0.24 | lncRNA:CR31526 | DRSC21520
-2.79 | -1.55 | Sox14 | DRSC04656
-0.14 | -0.02 | PDCD-5 | DRSC09955
0.46 | -0.15 | Oseg2 | DRSC08343
1.09 | 0.59 | Vang | DRSC07570
0.01 | 1.17 | SrpRbeta | DRSC21668

2 entries from above, set out differently.
replicate 1, z-score of dpERK with insulin	replicate 2, z-score of dpERK with insulin	Target gene	amplicon
-0.78	-1.44	CaMKI	DRSC17162
-0.1	0.18	Obp47b + CG7741	DRSC06330
